Results are given in words; binding and its absence hold for the method and conditions named. Binding seen in cells or lysates may run through a third protein. Some entries that bind do so weakly or less than the wild type.
Target: PSMD14 (Rpn11) containing a tag that facilitates affinity purification (UniProt O00487)
Test: pull-down; proteasomes affinity purified through the tag on PSMD14 (Rpn11) from cells exposed to hit compounds and from control cells; subunits detected by immunoblot

The chains behind the UniProt entries cited, without tags or fusion partners.
UniProt O00487: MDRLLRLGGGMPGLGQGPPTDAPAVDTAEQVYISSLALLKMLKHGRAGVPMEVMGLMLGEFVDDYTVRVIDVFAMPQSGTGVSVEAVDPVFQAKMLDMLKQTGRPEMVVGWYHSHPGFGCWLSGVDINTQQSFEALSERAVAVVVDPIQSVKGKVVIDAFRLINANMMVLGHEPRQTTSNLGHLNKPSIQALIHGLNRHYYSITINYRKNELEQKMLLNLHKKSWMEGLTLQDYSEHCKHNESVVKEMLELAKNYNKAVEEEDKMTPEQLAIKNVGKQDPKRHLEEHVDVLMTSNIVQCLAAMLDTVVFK
UniProt P35998: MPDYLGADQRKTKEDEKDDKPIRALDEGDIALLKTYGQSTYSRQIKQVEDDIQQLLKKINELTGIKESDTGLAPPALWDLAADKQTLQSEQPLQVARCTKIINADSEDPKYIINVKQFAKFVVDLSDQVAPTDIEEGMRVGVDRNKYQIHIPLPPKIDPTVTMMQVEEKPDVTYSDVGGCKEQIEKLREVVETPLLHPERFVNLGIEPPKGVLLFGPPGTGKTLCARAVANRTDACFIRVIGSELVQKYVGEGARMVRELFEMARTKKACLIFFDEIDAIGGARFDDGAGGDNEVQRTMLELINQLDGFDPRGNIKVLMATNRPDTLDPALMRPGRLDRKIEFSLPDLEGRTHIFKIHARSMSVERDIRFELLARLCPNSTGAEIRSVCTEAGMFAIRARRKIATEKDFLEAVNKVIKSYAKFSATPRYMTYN

binding: binds
Substance: PSMC2 (from UniProt P35998 1-433)
